The text below walks through data of patent US12686693 (dated 2026).

Data set [1] in a line: general procedure: solution-phase peptide synthesis; wscHCl/HOBt with TBAF (Procedure II(1)); TMS-OTf/MABR then Fmoc-amino acid chlor. The settings on record: whole synthesis, scale 0.250 mmol.
A short description of data set [2]: solution-phase peptide synthesis; wscHCl/HOBt with TBAF (Procedure II(1)); TMS-OTf/MABR then Fmoc-amino acid chlor. The settings on record: whole synthesis, scale 0.250 mmol.

Square brackets hold non-standard residues; d marks the D form. * marks the point of attachment. Fmoc = O=C(OCC1c2ccccc2-c2ccccc21)*; Cbz = O=C(OCc1ccccc1)*; Boc = CC(C)(C)OC(=O)*; Aib = CC(C)(N)C(=O)O; OtBu = CC(C)(C)O*; tBu = CC(C)(C)*

In data set [1], Cbz-K(Boc)AAA-OtBu yielded an isolated mass of 131 mg and an isolated yield of 81%.
With Cbz-AAAA-OtBu, in data set [1], the isolated mass was 101 mg and the isolated yield is listed as 82%.
The like results for Cbz-[Aib]GAAA-OtBu were, in that order, 77.5 mg and 55%.
In data set [1], Fmoc-AAAA-OtBu [listing 1 of 2 here] showed an isolated mass of 88.5 mg and an isolated yield of 61%.
Cbz-AMAS(tBu)AA-OtBu: in data set [1], the isolated mass turned out to be 50.5 mg. This substance also yielded an isolated yield in data set [2] of 32%.
In data set [1], Fmoc-MAAA-OtBu displayed an isolated mass of 99.2 mg and an isolated yield of 62%.
For Cbz-W(Boc)AAA-OtBu, in data set [1], the isolated mass stood at 120 mg and the isolated yield turned out to be 68%.
In data set [1], Cbz-MAAA-OtBu showed an isolated mass of 93.9 mg and an isolated yield of 68%.
As for Fmoc-VAAA-OtBu, in data set [1], the isolated mass was 80.6 mg and the isolated yield was found to be 53%.
The like results for Cbz-S(tBu)AAA-OtBu were, in that order, 109 mg and 77%.
For the substance Fmoc-AAAA-OtBu [listing 2 of 2 here], in data set [1], the isolated mass was 118 mg and the isolated yield was 81%.
For Cbz-AAAE(OtBu)-OtBu the same measures were 92.5 mg and 61%.
The like results for Cbz-AAAM-OtBu were, in that order, 84.2 mg and 61%.
